Where “and” joins values, the source holds several entries; their conditions need not be identical. Identical values can stand only once. The list shows a part of the results. This data set is noisy: repeats of one test often differ as much as different tests do.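 HEK293T cells were given each compound shortly before transfection with a reporter in which red mCherry is followed by the SARS-CoV-2 frameshift element and then GFP in the −1 frame, so GFP appears only after frameshifting.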

For the assay, the system named is HEK293T. As to the kind of experiment: percent viability (nuclei count) relative to control; higher = more viable cells. The following applies: 10 µM; 24 h.
For `CC[C@H]1OC(=O)C[C@@H](O)[C@H](C)[C@@H](O[C@@H]2O[C@H](C)[C@@H](O[C@H]3C[C@@](C)(O)[C@@H](O)[C@H](C)O3)[C@H](N(C)C)[C@H]2O)[C@@H](CC=O)C[C@@H](C)C(=O)/C=C/C(C)=C/[C@@H]1CO[C@@H]1O[C@H](C)[C@@H](O)[C@@H](OC)[C@H]1OC`, the percent viability stood at 137%.
As for `CC(C)OC(=O)CCC/C=C\C[C@@H]1[C@@H](/C=C/C(F)(F)COc2ccccc2)[C@H](O)C[C@@H]1O` [tafluprost], the percent viability came out at 94.7%.
Consider `OC[C@H]1O[C@@H](c2ccc(Cl)c(Cc3ccc(O[C@H]4CCOC4)cc3)c2)[C@H](O)[C@@H](O)[C@@H]1O` [Empagliflozin], for which the percent viability was determined as 70.7%.
For `COC(=O)[C@H]1[C@H]2C[C@@H]3c4[nH]c5cc(OC)ccc5c4CCN3C[C@H]2C[C@@H](OC(=O)c2cc(OC)c(OC)c(OC)c2)[C@@H]1OC`, the percent viability was 210%.
On to `CCC(=O)Oc1ccc2c(c1)CC[C@@H]1[C@@H]2CC[C@]2(C)[C@@H](OC(=O)CC)CC[C@@H]12`, for which the percent viability was found to be 175%.
As to `Clc1ccc(COC(Cn2ccnc2)c2ccc(Cl)cc2Cl)c(Cl)c1` (stereo not given) [miconazole], the percent viability is 216% and 116%.
With `CC(C)(C)CC(=O)OCC(=O)[C@@]12OC(C)(C)O[C@@H]1C[C@H]1[C@@H]3CCC4=CC(=O)C=C[C@]4(C)[C@@]3(F)[C@@H](O)C[C@@]12C` [triamcinolone hexacetonide], the percent viability was 151%.
Regarding `C1COC(NC(C2CC2)C2CC2)=N1` [Rilmenidine phosphate], the percent viability was 324%.
Consider `CC(CN(C)C)CN1c2ccccc2Sc2ccc(C#N)cc21` (stereo not given) [cyamemazine], for which the percent viability amounted to 333%.
Take `COc1ccc(OC)c(C(O)CNC(=O)CN)c1` (stereo not given) [midodrine]: the percent viability was 307%.
Under `CC(C(=O)O)c1ccc2oc(-c3ccc(Cl)cc3)nc2c1` (stereo not given) [benoxaprofen] stands 243%; under `CC(C)[C@@H]1CC[C@@H](C)C[C@H]1O` [levomenthol], 319%.
As to `CN(C)/N=N/c1[nH]cnc1C(N)=O`, the percent viability amounted to 174%.
Under `CN1CC2c3ccccc3Oc3ccc(Cl)cc3C2C1` (stereo not given) [Asenapine] stands 118%; under `CCc1c2c(nc3ccc(OC(=O)N4CCC(N5CCCCC5)CC4)cc13)-c1cc3c(c(=O)n1C2)COC(=O)[C@]3(O)CC`, 261%.
`O=c1[nH]cnc2c1ncn2[C@@H]1O[C@H](CO)[C@@H](O)[C@H]1O` [inosine]: the percent viability amounted to 115%.
Turning to `CCN(CC)C(=O)c1cccc(C)c1`, the percent viability was found to be 147%.
Turning to `COc1cc(N)c(Cl)cc1C(=O)N[C@@H]1CCNC[C@@H]1OC` [ticalopride], the percent viability turned out to be 396%.
Under `CC(=O)Nc1ccc(CC(=O)O)cc1` [actarit] stands 349% and 223%.
On to `COC(=O)C1=C(C)NC(C)=C(C(=O)OC(C)C)C1c1cccc2nonc12` (stereo not given) [isradipine], for which the percent viability was determined as 251%.
Under `O=C(O[C@H]1CN2CCC1CC2)N1CCc2ccccc2[C@@H]1c1ccccc1` stands 312%.
`CN(Cc1cc(Br)cc(Br)c1N)C1CCCCC1` [bromhexine]: the percent viability was 286% and 172%.
For `O=C1N=C(N2CCOCC2)CN1c1ccc(Cl)cc1` [imepitoin], the percent viability turned out to be 196%.
For `CCCCCCCCCCCCCCCCCCOP(=O)([O-])OC1CC[N+](C)(C)CC1`, the percent viability was found to be 173%.
For `COc1cc(C)c(/C=C/C(C)=C/C=C/C(C)=C/C(=O)O)c(C)c1C` [acitretin], the percent viability was 106% and 299%.
Consider `O=[N+]([O-])c1nccn1CC(O)CN1CCCCC1` (stereo not given) [pimonidazole], for which the percent viability was 85.8%.
As for `NS(=O)(=O)c1ccc(N2CCCCS2(=O)=O)cc1` [sultiame], the percent viability was found to be 48%.
Regarding `CNCC(O)c1ccc(OC(=O)C(C)(C)C)c(OC(=O)C(C)(C)C)c1` (stereo not given) [dipivefrine], the percent viability stood at 364%.
Consider `CC1(C)OC(=O)C(OCC2CC2)=C1c1ccc(S(C)(=O)=O)cc1` [firocoxib], for which the percent viability was 118%.
Turning to `CN1CCC(=C2c3ccccc3Sc3ccccc32)CC1` [pimethixene], the percent viability was 479%.
`NC[C@H]1O[C@H](O[C@H]2[C@H](O)[C@@H](O[C@H]3O[C@H](CO)[C@@H](O)[C@H](N)[C@H]3O)[C@H](N)C[C@@H]2N)[C@H](N)[C@@H](O)[C@@H]1O`: the percent viability came out at 168%.
For `OCC(O)CN1CCN(c2ccccc2)CC1` (stereo not given) [dropropizine], the percent viability was 324%.
Take `CC1=C(C/C=C(\C)CCC[C@H](C)CCC[C@H](C)CCCC(C)C)C(=O)c2ccccc2C1=O`: the percent viability was 88.3%.
Then `COC(=O)C1=C(C)NC(C)=C(C(=O)OCCN(C)Cc2ccccc2)C1c1cccc([N+](=O)[O-])c1` (stereo not given) [nicardipine], with 142% and 244%; and `Cc1ncc([N+](=O)[O-])n1CC(C)O` (stereo not given) [secnidazole], with 321% and 255%; and `O=c1n(CCCN2CCN(c3cccc(Cl)c3)CC2)nc2ccccn12` [trazodone], with 142%.
For `CO[C@H]1/C=C/O[C@@]2(C)Oc3c(C)c(O)c4c(O)c(c(/C=N/N5CCN(C)CC5)c(O)c4c3C2=O)NC(=O)/C(C)=C\C=C\[C@H](C)[C@H](O)[C@@H](C)[C@@H](O)[C@@H](C)[C@H](OC(C)=O)[C@@H]1C` [Rifampicin], the percent viability is 336%.
Consider `O=c1[nH]c2ccccc2n1CCN1CCN(c2cccc(C(F)(F)F)c2)CC1` [flibanserin], for which the percent viability is 73.4%.
On to `CCC1=C[C@@H]2CN(C1)Cc1c([nH]c3ccccc13)[C@@](C(=O)OC)(c1cc3c(cc1OC)N(C)[C@H]1[C@@](O)(C(=O)OC)[C@H](OC(C)=O)[C@]4(CC)C=CCN5CC[C@]31[C@@H]54)C2`, for which the percent viability was found to be 15.5%.
For `CC(=O)N(CC(O)CO)c1c(I)c(C(=O)NCCO)c(I)c(C(=O)NCC(O)CO)c1I` (stereo not given) [ioxilan], the percent viability was found to be 212%.

(Values after the supplement of paper PMC8256030.)
